These results are taken from patent US20230039401A1, “COMPOSITIONS AND METHODS FOR TREATING NRP2-ASSOCIATED DISEASES” (aTyr Pharma, Inc., priority 2018, published 2023).

Chains of the proteins cited; added tags and fusions are not shown. Lines headed by an entry give the natural chain unless they say otherwise; changes in a name come on top. A line that says so, or that is headed by a name, gives the form on record, which may keep a tag or linker. Residues count along the entry.
UniProt O60462, residues 23-864: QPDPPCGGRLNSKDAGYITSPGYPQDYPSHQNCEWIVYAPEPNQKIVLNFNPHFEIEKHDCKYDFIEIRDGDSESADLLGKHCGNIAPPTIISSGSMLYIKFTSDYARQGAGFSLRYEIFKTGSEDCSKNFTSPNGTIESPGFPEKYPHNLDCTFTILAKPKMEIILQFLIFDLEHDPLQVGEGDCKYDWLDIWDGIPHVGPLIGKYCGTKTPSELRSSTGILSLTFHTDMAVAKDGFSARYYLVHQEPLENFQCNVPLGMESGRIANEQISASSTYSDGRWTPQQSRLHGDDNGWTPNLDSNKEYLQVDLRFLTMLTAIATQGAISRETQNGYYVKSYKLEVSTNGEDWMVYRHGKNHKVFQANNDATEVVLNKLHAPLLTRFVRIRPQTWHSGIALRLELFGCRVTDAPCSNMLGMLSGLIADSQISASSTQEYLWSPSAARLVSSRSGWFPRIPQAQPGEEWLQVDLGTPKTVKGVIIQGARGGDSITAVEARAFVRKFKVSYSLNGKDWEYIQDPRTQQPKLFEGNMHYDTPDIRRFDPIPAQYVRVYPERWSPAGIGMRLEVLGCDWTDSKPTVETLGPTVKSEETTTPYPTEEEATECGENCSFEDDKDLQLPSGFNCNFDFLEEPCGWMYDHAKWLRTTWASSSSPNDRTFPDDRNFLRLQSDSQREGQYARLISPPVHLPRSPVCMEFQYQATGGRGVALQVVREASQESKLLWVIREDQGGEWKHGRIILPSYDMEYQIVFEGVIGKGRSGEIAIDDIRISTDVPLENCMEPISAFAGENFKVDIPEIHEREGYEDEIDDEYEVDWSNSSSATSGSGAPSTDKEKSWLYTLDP
VEGF-A165 (Peprotech #100-20) (P15692, form named): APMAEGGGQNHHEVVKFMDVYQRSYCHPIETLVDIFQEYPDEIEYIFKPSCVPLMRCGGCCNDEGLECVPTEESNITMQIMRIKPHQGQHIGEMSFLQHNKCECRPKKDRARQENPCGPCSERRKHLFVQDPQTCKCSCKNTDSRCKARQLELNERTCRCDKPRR
UniProt P49767, residues 103-227: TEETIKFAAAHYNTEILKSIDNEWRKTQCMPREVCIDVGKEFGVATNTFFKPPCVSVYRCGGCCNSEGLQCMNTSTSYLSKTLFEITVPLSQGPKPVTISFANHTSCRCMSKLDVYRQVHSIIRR

The target in the assay is NRP2-Fc (R&D Systems #2215-N2) (human) (UniProt O60462). The assay can be described thus: SPR (column: Binding to NRP2 observed by SPR).

These are yes or no findings as the source states them, for the method shown. Some entries that bind do so weakly or less than the wild type.

For “VEGF-A165 (Peprotech #100-20) (from UniProt P15692 27-191) (ligand)”, the binding entry was “binds”.

In the case of “VEGF-C (R&D Systems #9199-VC/CF) (from UniProt P49767 103-227) (ligand)”, the binding entry is “binds”.
